Measurements reported in PMC6775667.
These are yes or no findings as the source states them, for the method shown. In cells and extracts the contact can be indirect. Some entries that bind do so weakly or less than the wild type.

Protein sequences, listed by entry. Tags and fused reporters are not part of them.
UniProt P60484: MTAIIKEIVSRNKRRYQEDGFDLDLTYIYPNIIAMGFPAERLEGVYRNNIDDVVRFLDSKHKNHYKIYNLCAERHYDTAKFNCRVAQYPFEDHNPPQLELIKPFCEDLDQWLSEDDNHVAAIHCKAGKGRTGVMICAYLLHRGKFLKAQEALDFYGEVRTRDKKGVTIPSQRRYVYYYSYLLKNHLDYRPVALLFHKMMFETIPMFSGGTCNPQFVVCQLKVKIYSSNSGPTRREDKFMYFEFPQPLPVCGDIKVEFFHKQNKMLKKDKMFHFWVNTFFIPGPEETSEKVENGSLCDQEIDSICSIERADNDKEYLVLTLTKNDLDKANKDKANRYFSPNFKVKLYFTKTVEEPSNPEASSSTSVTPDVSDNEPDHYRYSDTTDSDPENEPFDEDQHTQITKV
UniProt P51784: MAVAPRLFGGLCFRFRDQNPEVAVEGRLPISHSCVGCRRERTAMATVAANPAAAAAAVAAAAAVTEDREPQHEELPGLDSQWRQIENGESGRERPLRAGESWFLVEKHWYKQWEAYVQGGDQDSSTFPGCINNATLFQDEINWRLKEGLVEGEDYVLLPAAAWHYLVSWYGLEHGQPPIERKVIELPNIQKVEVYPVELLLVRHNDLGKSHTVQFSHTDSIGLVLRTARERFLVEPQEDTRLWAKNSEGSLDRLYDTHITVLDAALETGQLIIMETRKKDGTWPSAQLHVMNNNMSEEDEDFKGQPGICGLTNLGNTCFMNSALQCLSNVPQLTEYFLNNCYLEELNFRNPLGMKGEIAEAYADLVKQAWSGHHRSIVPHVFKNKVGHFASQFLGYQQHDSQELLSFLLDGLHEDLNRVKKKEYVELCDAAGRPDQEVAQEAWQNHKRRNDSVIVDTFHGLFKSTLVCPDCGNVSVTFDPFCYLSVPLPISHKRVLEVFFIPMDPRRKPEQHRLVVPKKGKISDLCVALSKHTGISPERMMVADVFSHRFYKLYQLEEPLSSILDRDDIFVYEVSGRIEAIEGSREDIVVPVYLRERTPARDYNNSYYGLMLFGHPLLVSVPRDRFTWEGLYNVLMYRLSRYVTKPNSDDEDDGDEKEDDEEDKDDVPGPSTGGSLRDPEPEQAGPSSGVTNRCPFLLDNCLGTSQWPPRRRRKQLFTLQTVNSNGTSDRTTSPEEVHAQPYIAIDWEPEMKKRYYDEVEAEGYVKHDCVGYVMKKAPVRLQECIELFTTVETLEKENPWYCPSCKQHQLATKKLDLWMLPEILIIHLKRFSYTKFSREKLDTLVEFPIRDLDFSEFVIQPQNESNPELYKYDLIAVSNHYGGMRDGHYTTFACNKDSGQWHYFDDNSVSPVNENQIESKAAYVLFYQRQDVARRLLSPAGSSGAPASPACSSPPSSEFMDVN

Molecular target: PTEN (human (endogenous in ACHN, 786-O, Caki-1)) (UniProt P60484)
Assay: co-IP; cell lysates incubated with 3 ug PTEN antibody (Abcam) and Dynabeads Protein G at 4 °C overnight, western blot of the precipitate; ACHN and 786-O cells with lnc-DILC overexpression, Caki-1 cells with lnc-DILC knock-down

With “deubiquitinase USP11 (from UniProt P51784 1-963) (enzyme)” as the substance, how does the binding read?
Its binding is “binds”.
